{"source": "patent US5306808A", "about": "“Peptide derivatives having vasodilating activity” (Takeda Chemical Industries, Ltd., priority 1991, dated 1994)", "system": "porcine coronary artery", "type": "cell-based", "procedure": "Each of helical strips 2 mm×15 mm prepared from the coronary right ramus circumflexus from which the adventitial connective tissues and the endothelial cells were removed was set to each of 4 ml organ baths. Its tension was detected by a force displacement transducer UL-10GR (Minebea), and recorded by a polygraph (NEC Sanei). The organ baths were maintained at 37° C., and filled with a Krebs-Henseleit solution (composition:118 mM NaCl, 4.7 mM KCl, 2.5 mM CaCl2, 1.2 mM KH2 PO4, 25.0 mM NaHCO3, 1.2 mM MgSO4, 10.0 mM glucose) gassed with 95% O2 and 5% CO2.\nA tension of 1.25 to 1.5 g was applied to each of the strips, followed by equilibration for 1.5 hours. 60 mM KCl was repeatedly applied thereto at intervals of 30 minutes until the constriction response became constant. After additional equilibration for 1.5 hours, a sample for assay was given. The constriction of the strips was normalized by the constriction response of the individual strips to 60 mM KCl and statistically processed.\n(2) As to the antagonist property or the agonist property of the peptide derivatives of present invention to endothelin, the affinity for an endothelin receptor and the constrictor activity to porcine coronary smooth muscles (according to the method described in (1) described above) were assayed. The affinity for the receptor was assayed by the following method.", "note": "At least one peptide structure holds a part that was inferred or is arguable (an end, a ring closure or a residue).", "data": [{"smiles": "CC[C@H](C)[C@H](NC(=O)[C@H](CC(=O)O)NC(=O)[C@H](CC(C)C)NC(=O)[C@H](Cc1c[nH]cn1)NC(=O)[C@@H]1CSSC[C@H](N)C(=O)N[C@@H](CO)C(=O)N[C@H]2CSSC[C@H](NC(=O)[C@H](CCC(=O)O)NC(=O)[C@H](CCCCN)NC(=O)[C@H](CC(=O)O)NC(=O)[C@H](CCSC)NC(=O)[C@H](CC(C)C)NC(=O)[C@H](CO)NC(=O)[C@H](CO)NC2=O)C(=O)N[C@@H](C(C)C)C(=O)N[C@@H](Cc2ccc(O)cc2)C(=O)N[C@@H](Cc2ccccc2)C(=O)N1)C(=O)N[C@H](C(=O)N[C@@H](Cc1c[nH]c2ccccc12)C(=O)O)[C@@H](C)CC", "note": "[ET-1, endothelin-1, reference compound]", "values": [{"measurement": "Constrictor activity (Relative potency)", "setting": "ET-1 = 100", "value": 100}, {"measurement": "Maximum Constriction (% 60 mM KCl)", "setting": "normalized to constriction response to 60 mM KCl", "value": 120, "unit": "% 60 mM KCl"}]}]}
